{"source": "paper PMC7862700", "note": "The other results are listed elsewhere or left out. Construct or isoform of the protein are uncertain."}
{"target": "T1, ETS1 (UniProt P14921)", "T1 sequence": "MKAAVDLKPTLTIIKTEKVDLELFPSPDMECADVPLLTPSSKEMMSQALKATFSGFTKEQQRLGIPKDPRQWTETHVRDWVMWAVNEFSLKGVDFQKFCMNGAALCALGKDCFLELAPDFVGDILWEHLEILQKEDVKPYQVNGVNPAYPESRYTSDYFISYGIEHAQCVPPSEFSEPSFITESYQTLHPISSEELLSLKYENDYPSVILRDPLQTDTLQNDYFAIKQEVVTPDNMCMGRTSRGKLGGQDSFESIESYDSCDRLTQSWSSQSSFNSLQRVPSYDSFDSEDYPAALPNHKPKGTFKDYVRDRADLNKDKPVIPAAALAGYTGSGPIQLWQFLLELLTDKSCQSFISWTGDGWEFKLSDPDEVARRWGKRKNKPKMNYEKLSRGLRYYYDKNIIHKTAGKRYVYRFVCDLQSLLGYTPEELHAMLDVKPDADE", "experiment": "DAPPL (digital affinity profiling via proximity ligation, sequencing)", "conditions": "10 mM Tris-HCl pH 7.5, 50 mM NaCl, 1 mM DTT, 4% glycerol, room temperature, 30 min; GST-TFs on glutathione beads, 16-mer random dsDNA library, 0.1% …; high values mean tight binding; double strand, one strand shown; scale: fold enrichment (6-mer frequency, TF over GST control)"}
{"sequence": "GTTGTT", "binding signal": 1.14}
{"sequence": "AACCTG", "binding signal": 1.25}
{"sequence": "TATATG", "binding signal": 1.44}
{"sequence": "TTTTAT", "binding signal": 1.37}
{"sequence": "TCTCTC", "binding signal": 1.32}
{"sequence": "ACTTCG", "binding signal": 1.3}
{"sequence": "GAAGTC", "binding signal": 1.06}
{"sequence": "CCCCTT", "binding signal": 1.51}
{"sequence": "ACTGTT", "binding signal": 1.14}
{"sequence": "TTAGGT", "binding signal": 1.07}
{"sequence": "TAGAAG", "binding signal": 1.14}
{"sequence": "CTGCTT", "binding signal": 1.6}
{"sequence": "ATACAT", "binding signal": 1.27}
{"sequence": "CGCCTA", "binding signal": 1.15}
{"sequence": "AACGCA", "binding signal": 1.05}
{"sequence": "CCTCGA", "binding signal": 1.39}
{"sequence": "CCTCGC", "binding signal": 1.55}
{"sequence": "TCCAAG", "binding signal": 1.09}
{"sequence": "CTTTAG", "binding signal": 1.2}
{"sequence": "ATCGAC", "binding signal": 1.23}
{"sequence": "CCCTCT", "binding signal": 1.39}
{"sequence": "CTATCC", "binding signal": 1.47}
{"sequence": "ATCTTG", "binding signal": 1.32}
{"sequence": "CCTTCA", "binding signal": 1.5}
{"sequence": "TGTCAC", "binding signal": 1.27}
{"sequence": "AATTCG", "binding signal": 1.23}
{"sequence": "CCCCTG", "binding signal": 1.2}
{"sequence": "AGTTAA", "binding signal": 1}
{"sequence": "GAACTA", "binding signal": 1.22}
{"sequence": "GTTTGT", "binding signal": 1.01}
{"sequence": "CTGGCA", "binding signal": 1.33}
{"sequence": "CGTACC", "binding signal": 1.19}
{"sequence": "TTGCGA", "binding signal": 1.05}
{"sequence": "GCTTCT", "binding signal": 1.56}
{"sequence": "AAGATT", "binding signal": 1.14}
{"sequence": "ACACCC", "binding signal": 1.1}
{"sequence": "AAGATG", "binding signal": 1.1}
{"sequence": "CTAAAT", "binding signal": 1.42}
{"sequence": "GTCTTG", "binding signal": 1.06}
{"sequence": "ACCTTG", "binding signal": 1.18}
